Results: publication PMC5749825
These are yes or no findings as the source states them, for the method shown. In cells and extracts the contact can be indirect. These calls come from enrichment with a bait or labelling near it, and not all partners need be listed.

Amino acid sequences for entries named in this document (tags omitted).
UniProt P51784: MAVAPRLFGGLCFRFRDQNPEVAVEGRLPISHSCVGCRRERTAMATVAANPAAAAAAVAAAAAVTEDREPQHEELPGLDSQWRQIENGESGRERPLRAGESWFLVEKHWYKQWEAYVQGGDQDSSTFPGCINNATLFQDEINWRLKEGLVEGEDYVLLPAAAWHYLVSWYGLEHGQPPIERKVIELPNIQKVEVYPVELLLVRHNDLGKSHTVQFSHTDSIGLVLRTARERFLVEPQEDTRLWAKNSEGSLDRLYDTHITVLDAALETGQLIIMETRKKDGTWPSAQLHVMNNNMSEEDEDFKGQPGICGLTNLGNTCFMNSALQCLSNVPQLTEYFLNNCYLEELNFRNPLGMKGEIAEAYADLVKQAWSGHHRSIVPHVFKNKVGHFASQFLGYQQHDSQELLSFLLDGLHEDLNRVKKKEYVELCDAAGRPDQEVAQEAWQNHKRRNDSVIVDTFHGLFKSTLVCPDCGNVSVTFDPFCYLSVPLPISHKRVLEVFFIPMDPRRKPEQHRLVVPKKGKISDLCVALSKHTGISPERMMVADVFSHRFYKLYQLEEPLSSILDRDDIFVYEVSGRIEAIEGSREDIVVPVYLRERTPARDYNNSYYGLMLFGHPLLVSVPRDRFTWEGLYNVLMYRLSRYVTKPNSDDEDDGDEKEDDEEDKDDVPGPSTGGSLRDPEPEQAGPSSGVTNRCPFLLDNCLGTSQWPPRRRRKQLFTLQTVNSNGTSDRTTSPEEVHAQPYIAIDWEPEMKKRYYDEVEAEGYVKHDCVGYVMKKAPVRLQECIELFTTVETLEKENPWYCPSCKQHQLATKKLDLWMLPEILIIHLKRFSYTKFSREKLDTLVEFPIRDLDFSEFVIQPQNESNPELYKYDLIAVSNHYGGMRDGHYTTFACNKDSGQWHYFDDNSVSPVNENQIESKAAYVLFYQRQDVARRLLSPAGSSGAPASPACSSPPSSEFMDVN
UniProt O75592: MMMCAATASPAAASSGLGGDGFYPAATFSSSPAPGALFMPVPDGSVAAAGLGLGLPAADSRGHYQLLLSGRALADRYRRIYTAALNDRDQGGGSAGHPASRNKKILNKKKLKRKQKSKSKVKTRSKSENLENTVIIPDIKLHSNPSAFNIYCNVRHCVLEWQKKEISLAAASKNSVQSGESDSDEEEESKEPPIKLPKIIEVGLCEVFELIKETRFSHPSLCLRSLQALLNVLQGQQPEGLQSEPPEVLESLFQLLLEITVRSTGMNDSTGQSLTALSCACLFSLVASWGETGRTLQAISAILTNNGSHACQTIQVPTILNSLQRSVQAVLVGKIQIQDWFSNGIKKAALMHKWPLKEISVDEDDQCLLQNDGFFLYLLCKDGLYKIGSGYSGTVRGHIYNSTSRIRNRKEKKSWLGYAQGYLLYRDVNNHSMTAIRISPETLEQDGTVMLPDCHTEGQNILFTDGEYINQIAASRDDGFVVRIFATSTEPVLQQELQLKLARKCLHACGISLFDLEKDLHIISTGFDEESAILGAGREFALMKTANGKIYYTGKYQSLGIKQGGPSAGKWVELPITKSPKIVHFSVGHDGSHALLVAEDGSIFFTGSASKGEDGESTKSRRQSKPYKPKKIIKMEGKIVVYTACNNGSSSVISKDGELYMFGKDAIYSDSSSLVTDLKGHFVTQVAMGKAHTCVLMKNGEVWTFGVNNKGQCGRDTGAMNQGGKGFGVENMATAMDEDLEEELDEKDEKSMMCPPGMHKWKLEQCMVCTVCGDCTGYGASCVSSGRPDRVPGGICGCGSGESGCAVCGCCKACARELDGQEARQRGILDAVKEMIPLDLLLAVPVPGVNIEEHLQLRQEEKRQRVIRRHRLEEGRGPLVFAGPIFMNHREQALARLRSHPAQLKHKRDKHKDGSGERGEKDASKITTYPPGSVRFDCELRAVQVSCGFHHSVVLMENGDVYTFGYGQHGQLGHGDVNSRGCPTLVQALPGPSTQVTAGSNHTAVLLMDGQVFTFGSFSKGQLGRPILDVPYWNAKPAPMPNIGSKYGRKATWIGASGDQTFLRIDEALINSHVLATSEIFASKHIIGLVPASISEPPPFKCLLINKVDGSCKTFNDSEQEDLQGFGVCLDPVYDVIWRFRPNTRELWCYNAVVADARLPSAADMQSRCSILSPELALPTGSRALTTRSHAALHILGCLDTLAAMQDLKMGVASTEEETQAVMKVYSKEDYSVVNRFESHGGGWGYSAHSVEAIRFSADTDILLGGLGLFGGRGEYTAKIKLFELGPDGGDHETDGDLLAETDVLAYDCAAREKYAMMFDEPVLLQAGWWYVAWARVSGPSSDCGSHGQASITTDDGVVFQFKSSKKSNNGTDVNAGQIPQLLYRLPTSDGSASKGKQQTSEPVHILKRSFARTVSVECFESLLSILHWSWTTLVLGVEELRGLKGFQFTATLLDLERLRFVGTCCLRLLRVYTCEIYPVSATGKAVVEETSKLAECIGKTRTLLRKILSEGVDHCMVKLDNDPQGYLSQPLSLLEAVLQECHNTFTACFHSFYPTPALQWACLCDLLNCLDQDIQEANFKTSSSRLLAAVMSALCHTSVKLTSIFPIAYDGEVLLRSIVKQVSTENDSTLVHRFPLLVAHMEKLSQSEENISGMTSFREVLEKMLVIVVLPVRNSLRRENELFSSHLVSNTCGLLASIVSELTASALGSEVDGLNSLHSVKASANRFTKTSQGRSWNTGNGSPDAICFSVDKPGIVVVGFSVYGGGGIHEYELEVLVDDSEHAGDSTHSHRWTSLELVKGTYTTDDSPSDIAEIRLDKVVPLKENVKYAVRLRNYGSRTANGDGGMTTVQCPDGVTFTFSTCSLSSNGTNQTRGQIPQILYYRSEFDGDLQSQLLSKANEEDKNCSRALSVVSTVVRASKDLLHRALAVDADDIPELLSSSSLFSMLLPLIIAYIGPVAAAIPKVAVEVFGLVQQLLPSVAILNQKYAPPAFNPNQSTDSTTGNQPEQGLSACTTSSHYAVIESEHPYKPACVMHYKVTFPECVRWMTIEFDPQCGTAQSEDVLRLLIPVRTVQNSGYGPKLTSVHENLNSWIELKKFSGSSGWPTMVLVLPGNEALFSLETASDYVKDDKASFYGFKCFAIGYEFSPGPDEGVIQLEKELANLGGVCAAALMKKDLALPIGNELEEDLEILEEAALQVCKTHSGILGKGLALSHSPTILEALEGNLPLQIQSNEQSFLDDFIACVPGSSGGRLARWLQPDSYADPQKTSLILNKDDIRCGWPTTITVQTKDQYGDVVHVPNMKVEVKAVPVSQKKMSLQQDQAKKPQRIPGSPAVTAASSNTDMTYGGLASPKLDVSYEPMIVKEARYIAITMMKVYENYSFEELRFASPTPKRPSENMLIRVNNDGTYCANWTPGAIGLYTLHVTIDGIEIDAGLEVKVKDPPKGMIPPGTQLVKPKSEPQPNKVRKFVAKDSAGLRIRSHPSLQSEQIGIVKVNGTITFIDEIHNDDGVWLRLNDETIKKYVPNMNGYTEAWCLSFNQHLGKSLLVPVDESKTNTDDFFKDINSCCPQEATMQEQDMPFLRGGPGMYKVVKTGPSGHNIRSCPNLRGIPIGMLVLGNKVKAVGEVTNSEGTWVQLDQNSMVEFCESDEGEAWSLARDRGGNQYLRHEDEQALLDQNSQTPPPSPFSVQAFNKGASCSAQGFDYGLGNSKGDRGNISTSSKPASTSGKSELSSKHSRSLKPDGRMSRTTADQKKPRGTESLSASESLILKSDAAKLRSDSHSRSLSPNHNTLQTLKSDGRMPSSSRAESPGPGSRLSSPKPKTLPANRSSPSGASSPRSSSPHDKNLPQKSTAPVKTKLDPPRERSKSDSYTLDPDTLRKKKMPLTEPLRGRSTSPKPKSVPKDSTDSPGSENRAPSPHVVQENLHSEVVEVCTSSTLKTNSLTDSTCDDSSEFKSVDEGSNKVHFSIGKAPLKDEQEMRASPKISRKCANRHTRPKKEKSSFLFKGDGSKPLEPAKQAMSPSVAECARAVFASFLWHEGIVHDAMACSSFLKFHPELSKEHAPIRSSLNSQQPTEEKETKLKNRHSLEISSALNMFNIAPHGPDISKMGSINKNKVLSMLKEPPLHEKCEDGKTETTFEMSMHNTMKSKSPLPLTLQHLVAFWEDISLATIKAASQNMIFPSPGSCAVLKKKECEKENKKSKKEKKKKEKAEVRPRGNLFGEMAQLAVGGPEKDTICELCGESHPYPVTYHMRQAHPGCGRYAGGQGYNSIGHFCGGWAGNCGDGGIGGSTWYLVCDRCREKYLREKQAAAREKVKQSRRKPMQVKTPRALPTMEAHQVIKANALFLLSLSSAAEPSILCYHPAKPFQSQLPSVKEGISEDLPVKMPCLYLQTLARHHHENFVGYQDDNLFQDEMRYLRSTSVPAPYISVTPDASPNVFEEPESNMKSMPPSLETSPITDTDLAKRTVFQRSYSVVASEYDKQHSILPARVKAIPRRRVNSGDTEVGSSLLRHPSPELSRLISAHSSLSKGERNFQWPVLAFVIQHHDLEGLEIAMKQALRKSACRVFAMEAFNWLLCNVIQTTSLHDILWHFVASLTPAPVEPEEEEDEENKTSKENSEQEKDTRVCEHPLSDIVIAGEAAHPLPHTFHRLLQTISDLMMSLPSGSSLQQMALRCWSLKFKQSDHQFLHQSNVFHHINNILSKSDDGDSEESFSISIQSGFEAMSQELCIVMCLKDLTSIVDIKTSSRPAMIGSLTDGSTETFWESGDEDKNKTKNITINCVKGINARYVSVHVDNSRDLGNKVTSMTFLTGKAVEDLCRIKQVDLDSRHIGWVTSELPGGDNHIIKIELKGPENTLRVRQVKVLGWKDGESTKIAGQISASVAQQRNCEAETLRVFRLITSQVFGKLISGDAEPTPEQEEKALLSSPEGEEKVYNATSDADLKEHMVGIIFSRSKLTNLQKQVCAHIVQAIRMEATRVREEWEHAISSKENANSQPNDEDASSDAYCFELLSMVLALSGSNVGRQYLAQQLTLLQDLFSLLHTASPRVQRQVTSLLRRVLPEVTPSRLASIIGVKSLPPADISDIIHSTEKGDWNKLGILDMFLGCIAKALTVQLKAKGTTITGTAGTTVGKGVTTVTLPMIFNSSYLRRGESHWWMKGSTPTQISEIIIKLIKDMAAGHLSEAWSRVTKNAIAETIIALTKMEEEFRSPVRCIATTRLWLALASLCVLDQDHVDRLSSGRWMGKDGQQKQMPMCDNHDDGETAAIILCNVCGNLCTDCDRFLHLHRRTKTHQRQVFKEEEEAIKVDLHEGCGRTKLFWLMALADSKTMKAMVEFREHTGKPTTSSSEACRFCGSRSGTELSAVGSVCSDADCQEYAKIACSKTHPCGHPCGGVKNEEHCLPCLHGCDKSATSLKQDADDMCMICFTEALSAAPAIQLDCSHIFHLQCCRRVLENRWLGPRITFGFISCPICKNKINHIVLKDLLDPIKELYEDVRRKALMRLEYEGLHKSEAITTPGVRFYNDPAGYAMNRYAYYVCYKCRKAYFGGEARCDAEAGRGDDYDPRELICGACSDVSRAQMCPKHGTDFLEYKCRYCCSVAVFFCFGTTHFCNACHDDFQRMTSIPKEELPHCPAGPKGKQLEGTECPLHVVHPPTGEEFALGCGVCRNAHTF

Molecular target: Flag-tagged USP11 (Ubiquitin Specific Protease 11), stably expressed in U2OS cells (UniProt P51784)
Assay: affinity purification with mass spectrometry; large-scale Flag-IP from U2OS cells stably expressing Flag-USP11 (parental line as negative control); lysis in CSK buffer (10 mM Hepes pH 7.4, 10 mM KCl, 100 mM NaCl) with 0.5% NP40; anti-Flag agarose, 4°C, 4h; elution with Flag peptide; excised gel bands analysed by MS/MS

Molecule | binding
endogenous PAM (Protein associated with Myc) of U2OS cells (from UniProt O75592 1-4678) | binds
endogenous USP7 (Ubiquitin Specific Protease 7) of U2OS cells (from UniProt Q93009 1-1102) (enzyme) | binds
endogenous RAE1 of U2OS cells (protein, UniProt P78406 1-368) MSLFGTTSGFGTSGTSMFGSATTDNHNPMKDIEVTSSPDDSIGCLSFSPPTLPGNFLIAGSWANDVRCWEVQDSGQTIPKAQQMHTGPVLDVCWSDDGSKVFTASCDKTAKMWDLSSNQAIQIAQHDAPVKTIHWIKAPNYSCVMTGSWDKTLKFWDTRSSNPMMVLQLPERCYCADVIYPMAVVATAERGLIVYQLENQPSEFRRIESPLKHQHRCVAIFKDKQNKPTGFALGSIEGRVAIHYINPPNPAKDNFTFKCHRSNGTNTSAPQDIYAVNGIAFHPVHGTLATVGSDGRFSFWDKDARTKLKTSEQLDQPISACCFNHNGNIFAYASSYDWSKGHEFYNPQKKNYIFLRNAAEELKPRNKK | binds
endogenous KCTD6 of U2OS cells (protein, UniProt Q8NC69 1-237) MDNGDWGYMMTDPVTLNVGGHLYTTSLTTLTRYPDSMLGAMFGGDFPTARDPQGNYFIDRDGPLFRYVLNFLRTSELTLPLDFKEFDLLRKEADFYQIEPLIQCLNDPKPLYPMDTFEEVVELSSTRKLSKYSNPVAVIITQLTITTKVHSLLEGISNYFTKWNKHMMDTRDCQVSFTFGPCDYHQEVSLRVHLMEYITKQGFTIRNTRVHHMSERANENTVEHNWTFCRLARKTDD | binds
endogenous SPRYD3 (SPRY-domain containing protein 3) of U2OS cells (protein, UniProt Q8NCJ5 1-442) MRRTRRPRFVLMNKMDDLNLHYRFLNWRRRIREIREVRAFRYQERFKHILVDGDTLSYHGNSGEVGCYVASRPLTKDSNYFEVSIVDSGVRGTIAVGLVPQYYSLDHQPGWLPDSVAYHADDGKLYNGRAKGRQFGSKCNSGDRIGCGIEPVSFDVQTAQIFFTKNGKRVGSTIMPMSPDGLFPAVGMHSLGEEVRLHLNAELGREDDSVMMVDSYEDEWGRLHDVRVCGTLLEYLGKGKSIVDVGLAQARHPLSTRSHYFEVEIVDPGEKCYIALGLARKDYPKNRHPGWSRGSVAYHADDGKIFHGSGVGDPFGPRCYKGDIMGCGIMFPRDYILDSEGDSDDSCDTVILSPTARAVRNVRNVMYLHQEGEEEEEEEEEEEDGEEIEPEHEGRKVVVFFTRNGKIIGKKDAVVPSGGFFPTIGMLSCGEKVKVDLHPLSG | binds
